Our source for the binding values is publication doi:10.1101/2023.09.21.558883.

Protein sequences, listed by entry. Tags and fused reporters are not part of them.
UniProt Q91YE7: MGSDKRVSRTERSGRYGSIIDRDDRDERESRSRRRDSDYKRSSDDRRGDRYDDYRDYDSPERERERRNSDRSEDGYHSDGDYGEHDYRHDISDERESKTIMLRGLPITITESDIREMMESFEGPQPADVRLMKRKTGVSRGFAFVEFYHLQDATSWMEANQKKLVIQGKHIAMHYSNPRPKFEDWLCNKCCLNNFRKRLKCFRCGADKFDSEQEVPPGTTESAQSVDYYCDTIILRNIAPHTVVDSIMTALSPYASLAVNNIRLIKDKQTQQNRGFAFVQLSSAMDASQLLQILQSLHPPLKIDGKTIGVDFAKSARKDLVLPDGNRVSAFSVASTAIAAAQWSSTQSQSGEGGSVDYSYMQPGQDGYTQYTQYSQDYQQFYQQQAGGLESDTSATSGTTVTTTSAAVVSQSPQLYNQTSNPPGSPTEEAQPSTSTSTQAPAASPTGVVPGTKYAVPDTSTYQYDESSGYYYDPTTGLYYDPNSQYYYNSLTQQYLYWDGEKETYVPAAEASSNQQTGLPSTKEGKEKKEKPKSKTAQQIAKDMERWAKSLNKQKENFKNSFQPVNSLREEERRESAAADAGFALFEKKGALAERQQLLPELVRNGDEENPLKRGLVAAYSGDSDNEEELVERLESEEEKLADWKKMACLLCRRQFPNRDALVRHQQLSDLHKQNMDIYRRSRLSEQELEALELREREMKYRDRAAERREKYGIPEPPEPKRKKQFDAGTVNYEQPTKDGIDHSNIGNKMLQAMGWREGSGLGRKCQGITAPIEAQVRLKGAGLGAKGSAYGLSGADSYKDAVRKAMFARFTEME
UniProt O43143: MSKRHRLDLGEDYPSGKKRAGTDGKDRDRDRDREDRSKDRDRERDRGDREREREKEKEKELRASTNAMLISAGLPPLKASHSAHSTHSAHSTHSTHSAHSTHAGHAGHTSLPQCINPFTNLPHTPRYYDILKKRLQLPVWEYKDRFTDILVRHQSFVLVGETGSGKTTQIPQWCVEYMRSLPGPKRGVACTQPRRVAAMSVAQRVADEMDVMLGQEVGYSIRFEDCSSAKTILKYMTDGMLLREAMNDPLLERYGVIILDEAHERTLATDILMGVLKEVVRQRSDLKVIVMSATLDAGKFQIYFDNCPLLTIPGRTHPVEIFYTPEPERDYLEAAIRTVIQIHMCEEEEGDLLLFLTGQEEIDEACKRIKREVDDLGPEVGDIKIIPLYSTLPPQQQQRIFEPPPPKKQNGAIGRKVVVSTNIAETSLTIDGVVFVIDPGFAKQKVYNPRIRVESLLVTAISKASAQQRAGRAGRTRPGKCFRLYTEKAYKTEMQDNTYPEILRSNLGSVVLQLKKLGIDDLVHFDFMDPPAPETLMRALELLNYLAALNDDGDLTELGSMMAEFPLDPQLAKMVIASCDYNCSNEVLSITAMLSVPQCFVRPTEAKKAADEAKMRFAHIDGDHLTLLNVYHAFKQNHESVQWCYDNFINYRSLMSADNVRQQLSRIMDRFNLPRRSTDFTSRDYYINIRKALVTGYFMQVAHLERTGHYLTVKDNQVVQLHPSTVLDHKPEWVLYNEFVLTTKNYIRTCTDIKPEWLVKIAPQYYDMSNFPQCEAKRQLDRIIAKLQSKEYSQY
UniProt P52756: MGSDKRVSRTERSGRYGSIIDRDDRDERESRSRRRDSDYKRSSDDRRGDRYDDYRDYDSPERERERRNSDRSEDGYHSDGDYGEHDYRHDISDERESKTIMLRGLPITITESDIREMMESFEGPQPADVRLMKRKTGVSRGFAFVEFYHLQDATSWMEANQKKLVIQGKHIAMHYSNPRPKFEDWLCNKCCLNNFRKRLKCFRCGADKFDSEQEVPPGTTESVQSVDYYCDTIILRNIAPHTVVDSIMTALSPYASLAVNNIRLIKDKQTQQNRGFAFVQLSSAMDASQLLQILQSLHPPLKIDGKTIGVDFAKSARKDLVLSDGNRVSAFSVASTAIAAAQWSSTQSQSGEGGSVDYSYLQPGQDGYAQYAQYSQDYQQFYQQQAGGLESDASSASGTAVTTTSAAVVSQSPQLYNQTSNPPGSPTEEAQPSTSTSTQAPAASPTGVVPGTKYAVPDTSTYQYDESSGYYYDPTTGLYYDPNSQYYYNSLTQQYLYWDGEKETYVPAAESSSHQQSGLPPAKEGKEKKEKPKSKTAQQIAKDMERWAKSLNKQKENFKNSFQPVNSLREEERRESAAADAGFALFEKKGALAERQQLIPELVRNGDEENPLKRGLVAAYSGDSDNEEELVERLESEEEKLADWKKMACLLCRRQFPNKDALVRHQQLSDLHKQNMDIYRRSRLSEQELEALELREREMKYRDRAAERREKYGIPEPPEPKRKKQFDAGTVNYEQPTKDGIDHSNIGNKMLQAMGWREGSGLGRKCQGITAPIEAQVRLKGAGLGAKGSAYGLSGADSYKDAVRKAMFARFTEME
UniProt P98175: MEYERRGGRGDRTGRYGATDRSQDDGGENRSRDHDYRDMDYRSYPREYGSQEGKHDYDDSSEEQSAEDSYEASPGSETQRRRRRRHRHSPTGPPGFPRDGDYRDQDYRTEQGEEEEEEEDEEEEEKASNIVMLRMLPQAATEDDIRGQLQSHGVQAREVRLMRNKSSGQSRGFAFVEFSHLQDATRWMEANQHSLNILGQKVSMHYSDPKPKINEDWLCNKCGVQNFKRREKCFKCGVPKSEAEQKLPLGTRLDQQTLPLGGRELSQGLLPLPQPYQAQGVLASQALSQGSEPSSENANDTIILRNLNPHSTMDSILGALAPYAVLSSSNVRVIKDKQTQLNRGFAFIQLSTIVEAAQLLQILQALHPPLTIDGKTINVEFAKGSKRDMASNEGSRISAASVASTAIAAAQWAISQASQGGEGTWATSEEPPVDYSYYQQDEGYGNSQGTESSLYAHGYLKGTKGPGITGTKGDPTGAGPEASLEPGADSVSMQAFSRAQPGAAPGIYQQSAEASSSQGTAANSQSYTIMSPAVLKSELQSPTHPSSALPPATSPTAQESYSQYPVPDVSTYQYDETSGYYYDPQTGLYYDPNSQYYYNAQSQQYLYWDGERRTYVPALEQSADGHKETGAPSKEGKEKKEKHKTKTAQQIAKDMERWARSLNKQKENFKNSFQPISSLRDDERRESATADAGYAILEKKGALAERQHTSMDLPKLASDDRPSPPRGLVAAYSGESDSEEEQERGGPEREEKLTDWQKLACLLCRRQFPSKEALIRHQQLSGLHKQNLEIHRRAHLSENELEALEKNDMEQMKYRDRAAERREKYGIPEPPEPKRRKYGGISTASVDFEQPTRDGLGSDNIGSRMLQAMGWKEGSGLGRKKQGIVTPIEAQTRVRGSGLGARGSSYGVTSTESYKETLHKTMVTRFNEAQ

Residue numbers refer to the chain shown, from its start. Read-outs that look alike come from different tables or passages of the source. No constants are given. Whether binding was seen depends on the method and setting. Binding seen in cells or lysates may run through a third protein. Some binding calls cover weakened binding; strength is not graded here. For some of these results: Tags and fused reporters may be left off the sequences shown.

For test [1], the target named is T1, SF3A3-Flag (human) (UniProt Q12874).
T1 sequence: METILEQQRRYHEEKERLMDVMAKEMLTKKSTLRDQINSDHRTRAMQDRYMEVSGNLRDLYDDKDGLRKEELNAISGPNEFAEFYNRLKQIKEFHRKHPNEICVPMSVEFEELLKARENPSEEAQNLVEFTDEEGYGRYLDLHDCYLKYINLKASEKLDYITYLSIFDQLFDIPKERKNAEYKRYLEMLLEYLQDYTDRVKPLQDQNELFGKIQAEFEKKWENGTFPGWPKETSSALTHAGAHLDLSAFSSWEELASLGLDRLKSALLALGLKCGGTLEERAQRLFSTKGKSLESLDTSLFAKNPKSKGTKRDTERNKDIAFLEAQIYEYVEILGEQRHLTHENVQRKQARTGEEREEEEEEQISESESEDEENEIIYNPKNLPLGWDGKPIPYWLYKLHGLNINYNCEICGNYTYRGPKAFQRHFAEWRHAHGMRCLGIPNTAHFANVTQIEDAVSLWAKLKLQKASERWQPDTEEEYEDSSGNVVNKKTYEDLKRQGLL
Briefly: co-IP.

Test [2] deals with T1, SF3A3-Flag (human). Description: co-IP. This is another data set of the same source.
The target of test [3] is RBM5 (mouse brain) (mouse (endogenous in mouse brain)) (UniProt Q91YE7). Briefly: co-sedimentation.

On to “RNA helicase DHX15 (from UniProt O43143 1-795) (enzyme)”, for which the binding result in test [1] is “binds”.
The same measure, in the same setting: under “RBM5 (endogenous, human) (from UniProt P52756 1-815)” stands “binds”.
Still for that read-out and setting: next, “RBM10 (endogenous, human) (from UniProt P98175 1-930)”: “binds”.

B1: RBM17/SPF45 (protein, UniProt Q96I25 1-401)
chain: MSLYDDLGVETSDSKTEGWSKNFKLLQSQLQVKKAALTQAKSQRTKQSTVLAPVIDLKRGGSSDDRQIVDTPPHVAAGLKDPVPSGFSAGEVLIPLADEYDPMFPNDYEKVVKRQREERQRQRELERQKEIEEREKRRKDRHEASGFARRPDPDSDEDEDYERERRKRSMGGAAIAPPTSLVEKDKELPRDFPYEEDSRPRSQSSKAAIPPPVYEEQDRPRSPTGPSNSFLANMGGTVAHKIMQKYGFREGQGLGKHEQGLSTALSVEKTSKRGGKIIVGDATEKDASKKSDSNPLTEILKCPTKVVLLRNMVGAGEVDEDLEVETKEECEKYGKVGKCVIFEIPGAPDDEAVRIFLEFERVESAIKAVVDLNGRYFGGRVVKACFYNLDKFRVLDLAEQV
In the case of B1, in test [2], the binding entry is “binds”.

B2: SF3A3 (mouse brain) (protein, UniProt Q9D554 1-501)
chain: T1 sequence with A215T, E216D, E222D, H339Q
As for B2, the binding entry in test [3] is recorded as “binds”.

B3: SF3B1 (mouse brain) (protein, UniProt Q99NB9 1-1304)
chain: MAKIAKTHEDIEAQIREIQGKKAALDEAQGVGLDSTGYYDQEIYGGSDSRFAGYVTSIAATELEDDDDDYSSSTSLLGQKKPGYHAPVALLNDIPQSTEQYDPFAEHRPPKIADREDEYKKHRRTMIISPERLDPFADGGKTPDPKMNARTYMDVMREQHLTKEEREIRQQLAEKAKAGELKVVNGAAASQPPSKRKRRWDQTADQTPGATPKKLSSWDQAETPGHTPSLRWDETPGRAKGSETPGATPGSKIWDPTPSHTPAGAATPGRGDTPGHATPGHGGATSSARKNRWDETPKTERDTPGHGSGWAETPRTDRGGDSIGETPTPGASKRKSRWDETPASQMGGSTPVLTPGKTPIGTPAMNMATPTPGHIMSMTPEQLQAWRWEREIDERNRPLSDEELDAMFPEGYKVLPPPAGYVPIRTPARKLTATPTPLGGMTGFHMQTEDRTMKSVNDQPSGNLPFLKPDDIQYFDKLLVDVDESTLSPEEQKERKIMKLLLKIKNGTPPMRKAALRQITDKAREFGAGPLFNQILPLLMSPTLEDQERHLLVKVIDRILYKLDDLVRPYVHKILVVIEPLLIDEDYYARVEGREIISNLAKAAGLATMISTMRPDIDNMDEYVRNTTARAFAVVASALGIPSLLPFLKAVCKSKKSWQARHTGIKIVQQIAILMGCAILPHLRSLVEIIEHGLVDEQQKVRTISALAIAALAEAATPYGIESFDSVLKPLWKGIRQHRGKGLAAFLKAIGYLIPLMDAEYANYYTREVMLILIREFQSPDEEMKKIVLKVVKQCCGTDGVEANYIKTEILPPFFKHFWQHRMALDRRNYRQLVDTTVELANKVGAAEIISRIVDDLKDEAEQYRKMVMETIEKIMGNLGAADIDHKLEEQLIDGILYAFQEQTTEDSVMLNGFGTVVNALGKRVKPYLPQICGTVLWRLNNKSAKVRQQAADLISRTAVVMKTCQEEKLMGHLGVVLYEYLGEEYPEVLGSILGALKAIVNVIGMHKMTPPIKDLLPRLTPILKNRHEKVQENCIDLVGRIADRGAEYVSAREWMRICFELLELLKAHKKAIRRATVNTFGYIAKAIGPHDVLATLLNNLKVQERQNRVCTTVAIAIVAETCSPFTVLPALMNEYRVPELNVQNGVLKSLSFLFEYIGEMGKDYIYAVTPLLEDALMDRDLVHRQTASAVVQHMSLGVYGFGCEDSLNHLLNYVWPNVFETSPHVIQAVMGALEGLRVAIGPCRMLQYCLQGLFHPARKVRDVYWKIYNSIYIGSQDALIAHYPRIYNDDKNTYIRYDLDYIL
As to B3, in test [3], the binding entry is “binds”.

B4: CHERP (protein, UniProt Q8IWX8 1-916)
chain: MEMPLPPDDQELRNVIDKLAQFVARNGPEFEKMTMEKQKDNPKFSFLFGGEFYSYYKCKLALEQQQLICKQQTPELEPAATMPPLPQPPLAPAAPIPPAQGAPSMDELIQQSQWNLQQQEQHLLALRQEQVTAAVAHAVEQQMQKLLEETQLDMNEFDNLLQPIIDTCTKDAISAGKNWMFSNAKSPPHCELMAGHLRNRITADGAHFELRLHLIYLINDVLHHCQRKQARELLAALQKVVVPIYCTSFLAVEEDKQQKIARLLQLWEKNGYFDDSIIQQLQSPALGLGQYQATLINEYSSVVQPVQLAFQQQIQTLKTQHEEFVTSLAQQQQQQQQQQQQLQMPQMEAEVKATPPPPAPPPAPAPAPAIPPTTQPDDSKPPIQMPGSSEYEAPGGVQDPAAAGPRGPGPHDQIPPNKPPWFDQPHPVAPWGQQQPPEQPPYPHHQGGPPHCPPWNNSHEGMWGEQRGDPGWNGQRDAPWNNQPDAAWNSQFEGPWNSQHEQPPWGGGQREPPFRMQRPPHFRGPFPPHQQHPQFNQPPHPHNFNRFPPRFMQDDFPPRHPFERPPYPHRFDYPQGDFPAEMGPPHHHPGHRMPHPGINEHPPWAGPQHPDFGPPPHGFNGQPPHMRRQGPPHINHDDPSLVPNVPYFDLPAGLMAPLVKLEDHEYKPLDPKDIRLPPPMPPSERLLAAVEAFYSPPSHDRPRNSEGWEQNGLYEFFRAKMRARRRKGQEKRNSGPSRSRSRSKSRGRSSSRSNSRSSKSSGSYSRSRSRSCSRSYSRSRSRSRSRSRSSRSRSRSQSRSRSKSYSPGRRRRSRSRSPTPPSSAGLGSNSAPPIPDSRLGEENKGHQMLVKMGWSGSGGLGAKEQGIQDPIKGGDVRDKWDQYKGVGVALDDPYENYRRNKSYSFIARMKARDECK
Regarding B4, the binding result in test [2] was “binds”.
